Screen size: about 310,000 compounds; about 17,000 (5.5%) were called active. Inconclusive results, whose numbers are uncertain, are shown with a selection of clear calls. Calls follow the shape of the dose curve; as a rule, active = well fitted inhibition curve with a large enough effect; inconclusive = small, poorly fitted or top-dose-only effect, or effect the other way; inactive = no such curve, though single readings can be large or run the other way. A potency beside an inconclusive call is a rough fit, not a confirmed value.
Target: Nuclear receptor ROR-gamma (Mus musculus) (UniProt P51450)
Assay: qHTS for inhibitors of ROR gamma transcriptional activity; also: nearly all actives have a fitted effect of over 60% in size
Details: Drosophila S2 Gal4-RORgamma UAS-luciferase reporter, 20 h; activity change, negative = inhibition: at 53.6 µM (top of the series)
How it was run: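 Stably transfected Drosophila Schneider cells are the test system, with ROR gamma fused to Gal4 and luciferase under UAS control; luminescence is read after 20 hr of 700 uM copper sulfate induction at ambient temperature.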
% is scaled to controls: 0 for no effect and ±100 for the full control effect; potency is read from the fitted curve at half-maximal effect.

Protein sequences, listed by entry. Tags and fused reporters are not part of them. Lines headed by an entry give the natural chain unless they say otherwise; changes in a name come on top.
UniProt P51450: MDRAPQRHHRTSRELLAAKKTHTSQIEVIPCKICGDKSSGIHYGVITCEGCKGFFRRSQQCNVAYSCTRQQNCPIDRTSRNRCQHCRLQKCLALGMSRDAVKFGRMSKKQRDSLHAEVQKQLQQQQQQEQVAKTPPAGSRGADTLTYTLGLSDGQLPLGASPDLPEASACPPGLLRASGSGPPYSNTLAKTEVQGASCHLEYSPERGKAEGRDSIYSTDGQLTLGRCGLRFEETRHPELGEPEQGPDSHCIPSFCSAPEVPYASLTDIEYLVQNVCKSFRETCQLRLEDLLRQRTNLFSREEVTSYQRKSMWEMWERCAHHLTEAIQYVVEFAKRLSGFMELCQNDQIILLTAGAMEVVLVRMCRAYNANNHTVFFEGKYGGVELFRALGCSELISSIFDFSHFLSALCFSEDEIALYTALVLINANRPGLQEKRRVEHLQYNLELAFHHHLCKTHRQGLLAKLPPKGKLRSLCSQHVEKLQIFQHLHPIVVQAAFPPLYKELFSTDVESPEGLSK

SMILES | Potency | activity change, negative = inhibition
CC(C)(C)NC(=O)CSc1ncnc2c1nnn2Cc1ccccc1Cl | inconclusive: 28.2 µM [inhibitor, single point] | 
COCCNC(=O)CCc1c(C)nc2c(c(C)nn2-c2ccc(C)c(C)c2)c1C | inactive | 
Cc1cc(N/N=C/c2ccc(N(C)C)cc2)c2ccccc2n1 | active: 15.8 µM | 
CCOC(=O)c1ccc(N2C(=O)CC(NC3CCN(C(=O)c4cccc(Cl)c4)CC3)C2=O)cc1 (stereo not drawn) | inconclusive: 31.6 µM [activator, single point] | 
COc1cc(C(=O)NCC(=O)N/N=C/c2ccc(-c3cccc([N+](=O)[O-])c3)o2)cc(OC)c1OC | inconclusive: 0.251 µM [activator, full curve, poor fit] | 
CCOc1cccc(CNc2ccc(O)cc2)c1OCc1ccc(Cl)cc1 | inconclusive: 17.8 µM [inhibitor, partial curve, poor fit] | 
Cc1ccc(NC(=O)CSc2nnc(-c3cccnc3)n2-c2ccc(C)cc2)cc1 | inconclusive: 35.5 µM [inhibitor, single point] | 
CC(=O)c1csc(COc2ccc(Cl)cc2)n1 | inconclusive: 17.8 µM [activator, single point] | 
O=C(CN1C(=O)CC(c2ccco2)Sc2ccccc21)Nc1ccc2c(c1)OCCO2 (stereo not drawn) | inconclusive: 10 µM [activator, partial curve] | 
CC(=O)c1cccc(NC2c3ccccc3C(=O)N2Cc2ccco2)c1 (stereo not drawn) | inconclusive: 10 µM [activator, partial curve] | 
NC(=O)CCn1cnc2ccccc21 | inactive | 
O=c1c2ccccc2nnn1CSc1ccccc1F | inconclusive: 35.5 µM [inhibitor, single point] | 
O=C(N/C(=C/c1cccc([N+](=O)[O-])c1)C(=O)N1CCCCC1)c1cccs1 | inconclusive: 15.8 µM [activator, single point] | 
CN1C(=O)C(O)(C2COC(C)(C)CC2=O)c2cc(Br)ccc21 (stereo not drawn) | inactive | 
CC(C)C[C@H](NC(=O)OC(C)(C)C)C(=O)N/N=C/C1=Cc2ccccc2OC1C (stereo partly drawn) | inconclusive: 25.1 µM [inhibitor, single point] | 
Cc1ccc(NS(=O)(=O)c2ccc(-c3cnc(C4CC4)o3)cc2)c(C)c1 | inactive | 
Cc1cc(C)nc(SCC(=O)N/N=C/c2cc(C)n(-c3ccccc3C)c2C)n1 | inactive | 
Cc1cc(OCC(=O)Nc2ccc(S(=O)(=O)N3CCN(C)CC3)cc2)ccc1Cl | inconclusive: 31.6 µM [activator, single point] | 
CN(Cc1ccco1)c1cc(-c2ccc3c(c2)OCO3)ncn1 | inactive | 
Cc1nc2ncnn2c(C)c1CCC(=O)Nc1ccc(S(=O)(=O)N2CCCCCC2)cc1 | inconclusive: 8.91 µM [activator, partial curve] | 
C/C(Cn1nnc([N+](=O)[O-])n1)=N\NC(=O)c1ccc(O)cc1O | active: 0.501 µM | 
COc1ccc(S(=O)(=O)Nc2ccccc2OC)cc1NC(=O)CC1CC2CCC1C2 (stereo not drawn) | inactive | 
CCOC(=O)/C(N=Nc1ccc(C(=O)O)cc1[N+](=O)[O-])=C(\C)O | inconclusive: 35.5 µM [inhibitor, single point] | 

Looked up above.
Potency with CCOC(=O)c1ccc(N2C(=O)CC(NC3CCN(C(=O)c4cccc(Cl)c4)CC3)C2=O)cc1 (stereo not drawn) reads inconclusive: 31.6 µM [activator, single point]
Potency with Cc1ccc(NS(=O)(=O)c2ccc(-c3cnc(C4CC4)o3)cc2)c(C)c1 reads inactive
Potency with Cc1cc(N/N=C/c2ccc(N(C)C)cc2)c2ccccc2n1 reads active: 15.8 µM
Potency with Cc1ccc(NC(=O)CSc2nnc(-c3cccnc3)n2-c2ccc(C)cc2)cc1 reads inconclusive: 35.5 µM [inhibitor, single point]
Potency with CC(C)(C)NC(=O)CSc1ncnc2c1nnn2Cc1ccccc1Cl reads inconclusive: 28.2 µM [inhibitor, single point]
Potency with Cc1cc(OCC(=O)Nc2ccc(S(=O)(=O)N3CCN(C)CC3)cc2)ccc1Cl reads inconclusive: 31.6 µM [activator, single point]

(more compounds)

SMILES | Potency | activity change, negative = inhibition
O=C(COc1cccc(NC(=O)c2cccs2)c1)c1ccc(F)cc1 | inconclusive: 10 µM [activator, partial curve] | 
COc1ccc(-c2cc(C(F)(F)F)c3c(N)c(C(=O)NCCSC)sc3n2)cc1 | inconclusive: 35.5 µM [inhibitor, single point] | 
COc1ccc(-n2c(Cc3cccn3C)nnc2SCC(=O)Nc2ccccc2F)cc1 | inconclusive: 15.8 µM [activator, single point] | 
CSC1=NC2(CC(c3ccccc3)Oc3cc(O)ccc32)CC(C)(C)N1 (stereo not drawn) | inactive | 
Cc1nn(C)c(C)c1CN(C)C(=O)C1c2ccccc2Oc2ccccc21 | inconclusive: 2.24 µM [inhibitor, full curve, poor fit] | 
Cc1ccc(S(=O)(=O)NCc2cccnc2)s1 | inconclusive: 11.2 µM [activator, partial curve] | 
Cc1ccc(/C=C/C(=O)Nc2ccccc2C(N)=O)cc1 | active: 3.55 µM | 
Cc1cc(Cl)cc(C)c1OCCn1ccnc1 | inactive | 
Cc1ccc(NC(=S)NNC(=O)Nc2ccccc2)cc1 | inconclusive: 10 µM [inhibitor, partial curve, poor fit] | 
COc1nn(CC(=O)N2N=C(C(F)F)CC2(O)C(F)F)cc1[N+](=O)[O-] (stereo not drawn) | inactive | 
COc1cc(-c2nc(-c3ccc4c(c3)-c3ccccc3S4(=O)=O)c(-c3ccccc3)[nH]2)cc(OC)c1O | inconclusive: 2.51 µM [inhibitor, full curve] | 
COc1cc(C(=O)N/N=C/c2ccccn2)cc(OC)c1OC | inconclusive: 25.1 µM [inhibitor, single point] | 
O=C(/C=C/c1ccc(Cl)cc1Cl)NCc1ccco1 | inconclusive: 12.6 µM [activator, partial curve] | 
CC(C)(C)C(=O)Nc1ccc(C(=O)N/N=C/c2ccccc2OC(=O)c2ccc(Cl)cc2Cl)cc1 | inconclusive: 10 µM [inhibitor, partial curve, poor fit] | 
COc1cccc(C(=O)COC(=O)CCCC(=O)NC2CCCCC2)c1 | inconclusive: 7.08 µM [inhibitor, partial curve] | 
COc1ccc(N(C(=O)CCl)C(C(=O)NCCc2ccccc2)c2cccs2)cc1Cl (stereo not drawn) | active: 11.2 µM | 
CCC(CC)COC(=O)C1=C(C)NC(=O)NC1c1cccc([N+](=O)[O-])c1 (stereo not drawn) | inconclusive: 14.1 µM [activator, partial curve] | 
O=C1CCCN1c1ccc(CNS(=O)(=O)c2ccc(F)cc2)cc1 | inconclusive: 11.2 µM [activator, single point] | 
Fc1ccc(-c2cn(-c3ccccc3)c3[n+]2CCS3)cc1 | inactive | 
O=C(Nc1nc(-c2ccccc2)cs1)c1ccc2c(=O)n3c(nc2c1)CCCCC3 | inconclusive: 0.316 µM [activator, full curve] | 
Cc1ccc(N2CCN(S(=O)(=O)c3ccc4oc(=O)ccc4c3)CC2)c(C)c1 | inconclusive: 12.6 µM [activator, partial curve] | 
Fc1cccc(/C=C2\CCCC3=C2NC(=S)NC3c2cccc(F)c2)c1 (stereo not drawn) | active: 2.82 µM | 
Cc1ccc(-n2ncc3c(SCc4ccccn4)ncnc32)c(C)c1 | inconclusive: 11.2 µM [activator, partial curve] | 

SMILES | Potency | activity change, negative = inhibition
COc1ccc(S(=O)(=O)NCC2CCCN(C(=O)CC3CCCC3)C2)cc1 (stereo not drawn) | inconclusive: 11.2 µM [activator, partial curve] | 
O=C1OCCN1C(=O)[C@H]1[C@H](c2ccc([N+](=O)[O-])cc2)C(c2ccc(F)cc2)=NN1c1ccc(Br)cc1 | inactive | 
CN(C)c1ccc(-c2nc(NCc3cccnc3)c3ccccc3n2)cc1 | inconclusive: 35.5 µM [inhibitor, single point] | 
O=C(Oc1c(-c2ccccc2)oc2ccccc2c1=O)c1ccccc1 | inconclusive: 35.5 µM [inhibitor, single point] | 
O=C(NCC1CCOCC1)c1cc(COc2cccc(C(F)(F)F)c2)on1 | inconclusive: 22.4 µM [activator, single point] | 
COc1cccc(NC(=S)N(CCc2ccc(OC)c(OC)c2)Cc2ccccn2)c1 | inconclusive: 25.1 µM [inhibitor, single point] | 
CCc1nnc(NC(=O)/C=C/c2cccs2)s1 | inconclusive: 2.51 µM [activator, partial curve] | 
CNC(=O)CN(c1ccc(OC)cc1)S(=O)(=O)c1ccc(F)cc1 | inconclusive: 31.6 µM [activator, single point] | 
O=C(NCCc1ccccc1)c1ccccc1Cl | active: 8.91 µM | 
Oc1ccc(F)c2cccnc12 | active: 2.82 µM | 
CC(C)CN(CC(C)C)C(=O)CS(=O)(=O)Cc1ccccc1 | inconclusive: 5.62 µM [activator, single point] | 
CC(C)C(=O)NCCc1nc2ccccc2n1CCCOc1ccc(Cl)cc1 | inconclusive: 31.6 µM [inhibitor, single point] | 
NC1CCCCC1N=Cc1c(O)n(CCc2ccc(F)cc2)c(=O)[nH]c1=O (stereo not drawn) |  | inactive: 0.858% [at 10 µM]
COC(=O)c1ccc([C@@H]2C[C@H]3CN(Cc4cccnc4)C(=O)[C@]34CCCN24)cc1 | inactive | 
O=C(c1ccc2c(c1)N(Cc1ccccc1F)C(=O)c1ccccc1S2)N1CCOCC1 | inconclusive: 20 µM [activator, single point] | 
CC(NC(=O)Cn1nc(C(=O)O)c2ccccc2c1=O)c1ccccc1 (stereo not drawn) | inactive | 
COc1cc(C(=O)NNc2nc3cc4c(cc3s2)OCO4)cc(OC)c1OC | inconclusive: 35.5 µM [inhibitor, single point] | 
Cc1noc(C)c1CSc1ncnc2sc3c(c12)CCCCC3 | active: 7.94 µM | 
C=CCn1c(SCc2ccc(C(=O)Nc3nccs3)cc2)nnc1-c1ccc(C)c(Cl)c1 | inconclusive: 25.1 µM [inhibitor, single point] | 
COc1ccc2c(Cl)c(C(=O)N/N=C/c3cccnc3)sc2c1 | inconclusive: 35.5 µM [inhibitor, single point] | 
CC1CCN(S(=O)(=O)c2ccc3ccccc3c2)CC1 | inconclusive: 2.24 µM [inhibitor, partial curve] | 
O=C(Nn1c(C2CCCCC2)nc2ccccc2c1=O)c1ccc(Cl)c([N+](=O)[O-])c1 | inconclusive: 35.5 µM [inhibitor, single point] | 
